The data set can be described thus: peptide synthesis. The conditions noted are these: conjugation step.

On to NOTA-c(RGDyk)-cys-6-ahx-GE11, for which the conjugation yield was found to be 43%.

The values above are taken from patent US9981050B2 (Institute of Nuclear Energy Research, Atomic Energy …, priority 2015, dated 2018).
